{"source": "PubChem BioAssay AID1259254 – NCATS – 2017", "assay": "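Gene knock-downs that lead to re-replication, shown by excess G2 DNA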 (primary screen)", "cell system": "human HCT116 colorectal cancer cells", "reagent": "single siRNA against human genes", "time to read-out": "3 days", "read-out": "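Imaged Hoechst DNA stain sorts each cell into a cycle phase by DNA amount; per plate, G2 fraction set to 0% for non-targeting and 100% for GMNN siRNA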", "direction": "G2 robust z-score and G2 cells, % of GMNN control: higher = more G2 cells, more excess DNA replication", "hit rule": "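An siRNA counts as active if its G2 robust z-score lies at least 5 MADs above the screen median; here such calls match roughly 38% of GMNN control or more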", "note": "The whole screen tested about 59,000 reagents; below is a random part of them. About 1,550 of them (2.6%) count as active. 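G2 share is only a proxy for re-replication; each gene was hit by three separate siRNAs, and active genes were retested.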 Reagents against one gene are numbered here. Not all columns of the deposit are shown. Not given: the amount of reagent."}
{"gene": "MET", "reagent": 1, "G2 robust z-score": -1.36, "G2 cells, % of GMNN control": -6.58, "outcome": "inactive"}
{"gene": "MET", "reagent": 2, "G2 robust z-score": -0.599, "G2 cells, % of GMNN control": -1.25, "outcome": "inactive"}
{"gene": "MET", "reagent": 3, "G2 robust z-score": -0.942, "G2 cells, % of GMNN control": -3.66, "outcome": "inactive"}
{"gene": "MTHFD1L", "reagent": 1, "G2 robust z-score": 0.718, "G2 cells, % of GMNN control": 8.02, "outcome": "inactive"}
{"gene": "MTHFD1L", "reagent": 2, "G2 robust z-score": 0.463, "G2 cells, % of GMNN control": 6.22, "outcome": "inactive"}
{"gene": "MTHFD1L", "reagent": 3, "G2 robust z-score": -0.418, "G2 cells, % of GMNN control": 0.0291, "outcome": "inactive"}
{"gene": "MCRIP2", "reagent": 1, "G2 robust z-score": -0.792, "G2 cells, % of GMNN control": -2.6, "outcome": "inactive"}
{"gene": "MCRIP2", "reagent": 2, "G2 robust z-score": -1.23, "G2 cells, % of GMNN control": -5.69, "outcome": "inactive"}
{"gene": "MCRIP2", "reagent": 3, "G2 robust z-score": -0.16, "G2 cells, % of GMNN control": 1.84, "outcome": "inactive"}
{"gene": "LOC729369", "reagent": 1, "G2 robust z-score": 1.62, "G2 cells, % of GMNN control": 14.3, "outcome": "inactive"}
{"gene": "LOC729369", "reagent": 2, "G2 robust z-score": 2.35, "G2 cells, % of GMNN control": 19.5, "outcome": "inactive"}
{"gene": "LOC729369", "reagent": 3, "G2 robust z-score": -0.529, "G2 cells, % of GMNN control": -0.751, "outcome": "inactive"}

Next part (3 carried over from the part before).
{"gene": "LOC729369", "reagent": 1, "G2 robust z-score": 1.62, "G2 cells, % of GMNN control": 14.3, "outcome": "inactive"}
{"gene": "LOC729369", "reagent": 2, "G2 robust z-score": 2.35, "G2 cells, % of GMNN control": 19.5, "outcome": "inactive"}
{"gene": "LOC729369", "reagent": 3, "G2 robust z-score": -0.529, "G2 cells, % of GMNN control": -0.751, "outcome": "inactive"}
{"gene": "RNF44", "reagent": 1, "G2 robust z-score": 0.00232, "G2 cells, % of GMNN control": 2.98, "outcome": "inactive"}
{"gene": "RNF44", "reagent": 2, "G2 robust z-score": 1.99, "G2 cells, % of GMNN control": 17, "outcome": "inactive"}
{"gene": "RNF44", "reagent": 3, "G2 robust z-score": -0.728, "G2 cells, % of GMNN control": -2.16, "outcome": "inactive"}
{"gene": "OR5M11", "reagent": 1, "G2 robust z-score": -0.285, "G2 cells, % of GMNN control": 0.96, "outcome": "inactive"}
{"gene": "OR5M11", "reagent": 2, "G2 robust z-score": -0.954, "G2 cells, % of GMNN control": -3.75, "outcome": "inactive"}
{"gene": "OR5M11", "reagent": 3, "G2 robust z-score": -0.738, "G2 cells, % of GMNN control": -2.22, "outcome": "inactive"}
{"gene": "PRAMEF2", "reagent": 1, "G2 robust z-score": 0.2, "G2 cells, % of GMNN control": 4.37, "outcome": "inactive"}
{"gene": "PRAMEF2", "reagent": 2, "G2 robust z-score": -0.885, "G2 cells, % of GMNN control": -3.26, "outcome": "inactive"}
{"gene": "PRAMEF2", "reagent": 3, "G2 robust z-score": -1.24, "G2 cells, % of GMNN control": -5.76, "outcome": "inactive"}
{"gene": "AKR7A2", "reagent": 1, "G2 robust z-score": 0.0152, "G2 cells, % of GMNN control": 3.07, "outcome": "inactive"}
{"gene": "AKR7A2", "reagent": 2, "G2 robust z-score": -0.097, "G2 cells, % of GMNN control": 2.28, "outcome": "inactive"}
{"gene": "AKR7A2", "reagent": 3, "G2 robust z-score": 1.45, "G2 cells, % of GMNN control": 13.2, "outcome": "inactive"}
